Counter-ions that a name gives are not always drawn. The list shows a part of the results. Single values are uncertain here, since repeats match poorly.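 In a drug-repurposing library screen, luminescence reads luciferase driven by eight TEAD-binding elements, stably integrated into human kidney-derived cells. Compounds scoring over five robust Z scores above the plate mean are called hits.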
System: HEK293A TEAD-LUC reporter
Assay: TEAD-luciferase reporter activity (YAP activation), robust Z score vs plate; higher = stronger YAP/TEAD activation
Details: 24 h

SMILES	TEAD-luciferase reporter activity (compound concentration: 200 nM)	TEAD-luciferase reporter activity (compound concentration: 2 uM)	TEAD-luciferase reporter activity (compound concentration: 10 uM)
Nc1nc(N)c2ncn(CC(CF)OCP(=O)(O)O)c2n1 (stereo unspecified)	inactive: 0.527	inactive: -0.878	inactive: -0.258
O.O=[Si]=O.O=[Si]=O.O=[Si]=O.O=[Si]=O.[O]=[Mg].[O]=[Mg].[O]=[Mg]	inactive: -1.4		inactive: 0.11
CC/C(=C(/CC)c1ccc(O)cc1)c1ccc(O)cc1 [Diethylstilbestrol]	inactive: 0.862	inactive: 1.37	inactive: -0.387
C[C@@H](NC(=O)c1ncnc(N)c1Cl)c1ncc(C(=O)Nc2cc(C(F)(F)F)c(Cl)cn2)s1	inactive: -1.38	inactive: -2	inactive: -1.98
CC1(C)c2nc(-c3ccc(F)cc3)c(Nc3ccc(Cl)cc3)n2CCN1C(=O)CN	inactive: -1.45	inactive: -0.837	inactive: 4.41
C[C@H](NCc1ccc(OCc2cccc(F)c2)cc1)C(N)=O [safinamide mesylate]	inactive: -0.461	inactive: 3.18	inactive: 0.712
N#Cc1ccc(CN2CCC(N3Cc4ccccc4C3=O)CC2)cc1	inactive: -1.75		active: 6.39
Cc1cc(Nc2cc(CN3CCOCC3)c3nc(C)c(Cc4ccc(Cl)cc4F)n3n2)[nH]n1 [gandotinib]	inactive: -2.13	inactive: -2.54	inactive: -1.9
CC(C(=O)O)c1ccc(C2CCCCC2)cc1 (stereo unspecified) [hexaprofen]	inactive: 0.378	inactive: -1.63	inactive: 0.445
N[C@@H](Cc1cc(I)c(Oc2ccc(O)c(I)c2)c(I)c1)C(=O)O [liothyronine sodium]		inactive: -1.68	
N[C@@H](Cc1cc(I)c(Oc2ccc(O)c(I)c2)c(I)c1)C(=O)O [Liothyrionine]	inactive: 0.236		inactive: -1.52
O=C(NS(=O)(=O)c1ccc(Cl)cc1)c1ccc(Cl)cc1Cl	inactive: 0.681	inactive: 0.396	inactive: 0.0535
CCc1cc(CC[C@]2(C3CCCC3)CC(O)=C(Cc3nc4nc(C)cc(C)n4n3)C(=O)O2)cc(CC)n1 [Filibuvir]	inactive: -1.8	inactive: 0.772	inactive: 0.623
CC1(CN)Cc2ccccc2C1	inactive: 3.83	inactive: -2.39	inactive: 0.232
C=C[C@H]1CN2CCC1C[C@@H]2[C@@H](O)c1ccnc2ccc(OC)cc12 (stereo partly specified) [Quinidine]	inactive: 1.77	inactive: -0.0658	inactive: 4.22
CCN(CCO)CCCOc1ccc2c(Nc3cc(CC(=O)Nc4cccc(F)c4)[nH]n3)ncnc2c1 [Barasertib-HQPA]	inactive: -1.06	inactive: -1.3	inactive: 0.922
O=C(O)c1ccc(Oc2ccc3c(c2)COB3O)c(O)c1	inactive: 0.419	inactive: 1.18	inactive: 1.87
O=C1C=CN(c2c(F)cc(N3C[C@H](CNc4ccon4)OC3=O)c(F)c2F)CC1	inactive: 2.09	inactive: 0.477	inactive: 0.167
COc1cc2nc(N3CCN(C(=O)c4ccco4)CC3)nc(N)c2cc1OC [Prazosin]	inactive: -3.49		inactive: 1.71

Rewritten as labelled records: entries from further up.
Nc1nc(N)c2ncn(CC(CF)OCP(=O)(O)O)c2n1 (stereo unspecified)
  TEAD-luciferase reporter activity (compound concentration: 200 nM): inactive: 0.527
  TEAD-luciferase reporter activity (compound concentration: 2 uM): inactive: -0.878
  TEAD-luciferase reporter activity (compound concentration: 10 uM): inactive: -0.258
O.O=[Si]=O.O=[Si]=O.O=[Si]=O.O=[Si]=O.[O]=[Mg].[O]=[Mg].[O]=[Mg]
  TEAD-luciferase reporter activity (compound concentration: 200 nM): inactive: -1.4
  TEAD-luciferase reporter activity (compound concentration: 10 uM): inactive: 0.11
CC/C(=C(/CC)c1ccc(O)cc1)c1ccc(O)cc1 [Diethylstilbestrol]
  TEAD-luciferase reporter activity (compound concentration: 200 nM): inactive: 0.862
  TEAD-luciferase reporter activity (compound concentration: 2 uM): inactive: 1.37
  TEAD-luciferase reporter activity (compound concentration: 10 uM): inactive: -0.387
C[C@@H](NC(=O)c1ncnc(N)c1Cl)c1ncc(C(=O)Nc2cc(C(F)(F)F)c(Cl)cn2)s1
  TEAD-luciferase reporter activity (compound concentration: 200 nM): inactive: -1.38
  TEAD-luciferase reporter activity (compound concentration: 2 uM): inactive: -2
  TEAD-luciferase reporter activity (compound concentration: 10 uM): inactive: -1.98

The results go on.

SMILES	TEAD-luciferase reporter activity (compound concentration: 200 nM)	TEAD-luciferase reporter activity (compound concentration: 2 uM)	TEAD-luciferase reporter activity (compound concentration: 10 uM)
COc1cc2nc(N3CCN(C(=O)c4ccco4)CC3)nc(N)c2cc1OC [prazosin]		inactive: 0.238	
CSc1ccccc1N(Cc1cccc(C(F)(F)F)c1)C(=O)CN(CCN(C)C)C(=O)OCC(C)C	inactive: -0.743	inactive: -0.203	inactive: 2.02
CN(C)CCC(Oc1ccc2c(c1)C(=O)CC(c1ccccc1)O2)c1ccccc1 (stereo unspecified)	inactive: 1.04	inactive: -1.19	inactive: -1.16
Fc1cnc(Cl)nc1NCc1ccc(CNc2ccnc(NCCN3CCOCC3)n2)cc1	inactive: -0.63	inactive: -0.542	inactive: -0.0234
CCCCC[C@H](O)/C=C/[C@@H]1[C@@H](C/C=C\CCCC(=O)OC(C)C)[C@@H](O)C[C@H]1O [PGF2alpha-IE]	inactive: -1.91	inactive: 0.553	active: 10.3
CC(C)(C)c1cc(C2CCCCC2)ccc1OC(=O)c1ccccn1	inactive: 0.99	inactive: 0.353	inactive: -1.18
COc1cc2ncnc3c2cc1OCCCCCN(C)Cc1ccc(Br)cc1N3	inactive: -0.576	inactive: -0.392	inactive: 1.3
O=C(c1ccccc1)N1CCC(C(=O)N2CCC(N3Cc4ccccc4C3=O)CC2)CC1	inactive: -0.232		inactive: 2.95
COc1c(N2CC[C@@H](C(C)(C)N)C2)ccc2c(=O)c(C(=O)O)cn(C3CC3)c12	inactive: 0.048	inactive: 0.654	inactive: 0.66
COC(=O)[C@H](Cc1ccc(-c2ccccc2)cc1)NC(=O)c1ccc(-c2ccc(C(F)(F)F)cc2)cc1	inactive: -0.546	inactive: -0.903	inactive: 0.159
CNC(=O)c1cc(Oc2ccc3nc(N[C@@H]4CCCC[C@H]4O)sc3c2)ccn1	inactive: -0.979	inactive: 1.77	inactive: 2.07
CCN(CC)CC(=O)Nc1c(C)cc(C)cc1C		inactive: -1.56	
CCN(CC)CC(=O)Nc1c(C)cc(C)cc1C [Trimecaine]	inactive: 0.19		inactive: -0.677
COc1ccc(CN2C(=O)C(C)SC2c2cccnc2)cc1 (stereo unspecified)	inactive: -1.1	inactive: 0.207	inactive: -1.16
CC(C)NCC(O)COc1ccc(COCCOC(C)C)cc1 (stereo unspecified)	inactive: -2.13		inactive: -0.638
CC(C)NCC(O)COc1ccc(COCCOC(C)C)cc1 (stereo unspecified) [Bisoprolol Hemifumarate]		inactive: -0.511	
CC(=O)NCCc1c(Cc2ccccc2)[nH]c2ccccc12	inactive: -1.52	inactive: 3.17	inactive: 0.217
CC(C)N1C(=O)C(C)(C)Oc2ccc(C(=O)N=C(N)N)cc21	inactive: 1.28	inactive: -0.27	active: 6
O=C1NCc2ccccc2CC12CCCCN2Cc1cccc(F)c1F (stereo unspecified)	inactive: 0.777		inactive: -0.735

SMILES	TEAD-luciferase reporter activity (compound concentration: 200 nM)	TEAD-luciferase reporter activity (compound concentration: 2 uM)	TEAD-luciferase reporter activity (compound concentration: 10 uM)
CC[C@H](C)[C@H](NC(=O)OCc1ccccc1)C(=O)N[C@@H](CCC(=O)OC(C)(C)C)C(=O)N[C@@H](C)C(=O)N[C@H](C=O)CC(C)C	inactive: -1.29		inactive: 0.283
COc1cc(N)c(Cl)cc1C(=O)NCCC1(N(C)C)CCCCC1	inactive: -0.247	inactive: -0.28	inactive: 1.22
NC1=NCC(CN2CCN(c3ccccc3)CC2)O1 (stereo unspecified)	inactive: 0.732	inactive: 0.387	inactive: -1.32
CN(C(=O)n1cnc(-c2ccc[n+]([O-])c2)c1)C1CCCCC1	inactive: 0.198	inactive: -1.05	inactive: 0.968
CCCCCCCCCCCC(=O)c1c(O)c(C(=O)CCCCCCCCCCC)c(O)c(C2CC(c3ccc(O)cc3)Oc3cc(O)ccc32)c1O (stereo unspecified)		inactive: -0.22	inactive: -1
CCN[C@H]1C[C@H](C)S(=O)(=O)c2sc(S(N)(=O)=O)cc21	inactive: -1.25	inactive: -0.398	inactive: 4.31
CCN[C@H]1C[C@H](C)S(=O)(=O)c2sc(S(N)(=O)=O)cc21 [Dorzolamide Hydrochloride]		inactive: -0.794	
CC(C)(Oc1ccc(Cl)cc1)C(=O)N[C@@H](C(=O)N[C@@H]1C(=O)N2[C@@H]1SC(C)(C)[C@@H]2C(=O)O)c1ccccc1	inactive: 0.377	inactive: 0.478	inactive: -1.12
CCCCN1CCC(n2c(O)nc3ccccc32)CC1	inactive: 0.246	inactive: -1.89	inactive: 2.22
CCCCCCCCCCCCCCCCCCNC(=O)OCC(COC(=O)N(Cc1cccc[n+]1CC)C(C)=O)OC (stereo unspecified)	inactive: -0.0723	inactive: -1.27	inactive: -0.225
NS(=O)(=O)c1cc2c(cc1Cl)NC(C(Cl)(Cl)Cl)NS2(=O)=O (stereo unspecified)	inactive: 0.379	inactive: 0.116	inactive: -1.36
CC[C@H](C)[C@H](NC(=O)[C@H](Cc1ccc(O)cc1)NC(=O)[C@@H](NC(=O)[C@H](CCCNC(=N)N)NC(=O)[C@@H](N)CC(=O)O)C(C)C)C(=O)N[C@@H](Cc1c[nH]cn1)C(=O)N1CCC[C@H]1C(=O)N[C@@H](Cc1ccccc1)C(=O)O [Human angiotensin II]	inactive: 2.08	inactive: -1.36	inactive: 3.31
C[C@@H]([C@@H](O)c1ccc(O)cc1)N1CCC(O)(c2ccccc2)CC1 [Traxoprodil]	inactive: -1.06	inactive: 0.488	inactive: 1.22
NC1=N[C@@]2(c3cc(NC(=O)c4ccc(F)cn4)ccc3F)COC[C@H]2CS1	inactive: -0.603	inactive: -0.524	inactive: 0.444
COC(=O)C[C@H]1CCCCN1C(=O)/C=C/c1c(-c2ccccc2)nn2ccccc12	inactive: 0.332	inactive: -0.955	inactive: -0.205
O=C(Cc1ccc(Cl)cc1)Nc1ccc2cnn(CCN3CCCC3)c2c1	inactive: -0.925	inactive: -0.968	inactive: -0.953
O=C(O)COc1cccc2c1CCC=C2CCON=C(c1ccccc1)c1cccnc1	inactive: -0.631	inactive: 0.364	inactive: 1.42
CCCc1ccc(NS(=O)(=O)Cc2ccccc2)c(=O)n1CC(=O)NCc1cccc(C)c1	inactive: 1.18	inactive: -1.14	inactive: 0.289
NCCC(=O)N[C@@H](Cc1cnc[nH]1)C(=O)O [Carnosine]	active: 7.24	inactive: -2.38	inactive: 2.94

— the supplement of paper PMC10735217
